Article PMC12347450
These are yes or no findings as the source states them, for the method shown. Binding seen in cells or lysates may run through a third protein. Some binding calls cover weakened binding; strength is not graded here.

Amino acid sequences for entries named in this document (tags omitted).
UniProt Q99J83: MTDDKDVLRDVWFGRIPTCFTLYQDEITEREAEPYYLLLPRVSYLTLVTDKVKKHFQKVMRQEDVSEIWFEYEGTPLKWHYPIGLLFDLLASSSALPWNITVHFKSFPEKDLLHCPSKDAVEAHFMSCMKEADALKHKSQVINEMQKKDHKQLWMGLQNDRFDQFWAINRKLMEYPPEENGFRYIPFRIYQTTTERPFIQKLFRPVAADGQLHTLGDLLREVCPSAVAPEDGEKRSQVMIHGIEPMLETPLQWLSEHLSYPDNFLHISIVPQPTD

Target: T1, SPRED3 (Sprouty-related protein with EVH1 domain 3) (mouse (endogenous in brain cortex)) (UniProt Q6P6N5)
T1 sequence: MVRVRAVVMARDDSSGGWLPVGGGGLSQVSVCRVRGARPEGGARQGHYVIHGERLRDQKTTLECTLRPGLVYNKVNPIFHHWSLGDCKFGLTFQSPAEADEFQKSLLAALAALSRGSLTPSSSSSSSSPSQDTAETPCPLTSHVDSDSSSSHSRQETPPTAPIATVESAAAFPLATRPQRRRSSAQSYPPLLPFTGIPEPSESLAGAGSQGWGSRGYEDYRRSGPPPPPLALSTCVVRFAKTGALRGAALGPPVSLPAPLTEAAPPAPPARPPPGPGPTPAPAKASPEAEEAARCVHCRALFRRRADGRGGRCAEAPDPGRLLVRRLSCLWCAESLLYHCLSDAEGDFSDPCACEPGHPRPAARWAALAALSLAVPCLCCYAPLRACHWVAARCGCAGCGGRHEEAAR
Experiment: co-IP; brain cortex lysate (150 mM NaCl, 1% IGEPAL, 0.5% sodium deoxycholate, 50 mM Tris, pH 8), precleared, polyclonal rabbit anti-SPRED3 and Protein A/G beads, 4 °C; immunoblot for p62 or ATG5; irrelevant antibody as control

autophagy-related gene 5 (ATG5) (from UniProt Q99J83 1-275)
binding: binds
